Results as given in article PMC10957977.
These are yes or no findings as the source states them, for the method shown. For part of these data: In cells and extracts the contact can be indirect. Some results given as binding are weak or reduced against the parent protein; the word gives no strength. Blank lines part the entries; values can stand above or below the substance they belong to.

Sequences of proteins named here, by UniProt entry; tags and fusion partners are left off. A change or cut given only in a name is not applied to a line headed by its entry. A line that says so, or that is headed by a name, gives the form on record, which may keep a tag or linker.
UniProt O15372: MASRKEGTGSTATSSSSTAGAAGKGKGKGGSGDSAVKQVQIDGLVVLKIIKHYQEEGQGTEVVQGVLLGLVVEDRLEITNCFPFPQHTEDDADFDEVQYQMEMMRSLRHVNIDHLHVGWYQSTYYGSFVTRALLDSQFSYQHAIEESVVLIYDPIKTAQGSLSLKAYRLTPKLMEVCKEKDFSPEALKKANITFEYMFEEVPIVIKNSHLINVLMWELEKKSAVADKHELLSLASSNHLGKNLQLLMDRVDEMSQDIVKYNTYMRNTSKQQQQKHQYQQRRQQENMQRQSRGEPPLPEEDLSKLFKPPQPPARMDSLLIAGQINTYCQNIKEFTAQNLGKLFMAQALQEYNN
EIF3H^DDQ/AAA (O15372, form named): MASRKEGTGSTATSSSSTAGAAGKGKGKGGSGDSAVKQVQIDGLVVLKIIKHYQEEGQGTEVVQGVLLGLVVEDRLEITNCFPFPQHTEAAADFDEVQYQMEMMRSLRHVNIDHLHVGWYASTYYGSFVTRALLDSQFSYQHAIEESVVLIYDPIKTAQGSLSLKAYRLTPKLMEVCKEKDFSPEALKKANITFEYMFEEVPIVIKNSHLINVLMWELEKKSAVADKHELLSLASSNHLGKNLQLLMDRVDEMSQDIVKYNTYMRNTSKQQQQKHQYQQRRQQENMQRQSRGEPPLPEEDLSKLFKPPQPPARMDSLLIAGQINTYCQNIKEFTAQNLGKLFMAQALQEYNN
EIF3H^YW/AA (O15372, form named): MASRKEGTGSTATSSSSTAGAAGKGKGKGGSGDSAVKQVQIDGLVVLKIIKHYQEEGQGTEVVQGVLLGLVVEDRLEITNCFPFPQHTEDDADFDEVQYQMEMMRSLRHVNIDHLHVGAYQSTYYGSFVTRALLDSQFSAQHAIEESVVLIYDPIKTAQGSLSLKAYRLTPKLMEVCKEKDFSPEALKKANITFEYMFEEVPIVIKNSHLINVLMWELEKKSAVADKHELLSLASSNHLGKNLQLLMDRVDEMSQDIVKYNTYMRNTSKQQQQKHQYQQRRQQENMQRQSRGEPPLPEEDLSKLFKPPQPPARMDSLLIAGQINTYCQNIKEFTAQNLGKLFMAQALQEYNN
UniProt Q9Y297: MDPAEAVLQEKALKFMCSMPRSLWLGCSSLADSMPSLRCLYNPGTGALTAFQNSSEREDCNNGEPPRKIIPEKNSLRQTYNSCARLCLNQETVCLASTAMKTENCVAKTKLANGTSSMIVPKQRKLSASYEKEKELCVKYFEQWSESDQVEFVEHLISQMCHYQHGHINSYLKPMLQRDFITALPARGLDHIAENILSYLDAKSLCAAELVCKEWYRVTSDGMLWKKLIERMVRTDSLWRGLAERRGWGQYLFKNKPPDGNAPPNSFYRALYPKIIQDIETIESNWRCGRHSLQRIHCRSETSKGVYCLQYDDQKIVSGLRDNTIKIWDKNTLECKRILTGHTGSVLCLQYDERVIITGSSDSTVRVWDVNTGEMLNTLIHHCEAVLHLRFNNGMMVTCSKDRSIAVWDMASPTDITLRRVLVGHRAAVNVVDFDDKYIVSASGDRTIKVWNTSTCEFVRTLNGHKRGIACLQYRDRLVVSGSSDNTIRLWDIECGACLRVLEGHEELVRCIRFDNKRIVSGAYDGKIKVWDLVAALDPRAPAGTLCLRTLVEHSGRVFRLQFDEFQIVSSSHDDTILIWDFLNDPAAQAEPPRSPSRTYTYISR
UniProt P27361: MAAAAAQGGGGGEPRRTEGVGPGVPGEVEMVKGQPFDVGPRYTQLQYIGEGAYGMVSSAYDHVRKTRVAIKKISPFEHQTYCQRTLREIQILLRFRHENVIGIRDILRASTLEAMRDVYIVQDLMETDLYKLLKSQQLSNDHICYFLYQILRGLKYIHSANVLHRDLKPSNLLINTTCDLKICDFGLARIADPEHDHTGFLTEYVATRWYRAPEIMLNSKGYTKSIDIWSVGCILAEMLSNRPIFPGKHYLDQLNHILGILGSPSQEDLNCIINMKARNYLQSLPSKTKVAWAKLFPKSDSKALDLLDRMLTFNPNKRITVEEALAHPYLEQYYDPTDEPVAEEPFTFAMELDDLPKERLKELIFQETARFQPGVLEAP

How the values were obtained:
Flag-RAF1 in HEK293T = Flag-RAF1 in HEK293T (UniProt P04049); assay: co-IP; HEK293T cells transfected with Flag- or Myc-tagged bait (in some panels with increasing HA-HAX1); NP-40 buffer (50 mM Tris-HCl pH 7.5, 150 mM NaCl, 1 mM EDTA, 0.1% NP-40, 0.1% Triton); anti-Flag M2 beads or anti-Myc magnetic beads, 4 °C, 3-4 h; immunoblot
[1] = target: Flag-HAX1 S232D/T236D mutant (2DD) (UniProt O00165); assay: as above
[2] = target: Flag-HAX1 S232A/T236A mutant (2AA) (UniProt O00165); assay: as above
Flag-HAX1 in HEK293T = Flag-HAX1 in HEK293T (UniProt O00165); assay: as above
[3] = target: EIF3H, endogenous in HCT116 (human (endogenous in HCT116)) (UniProt O15372); assay: SEC; HCT116 (shCtrl and shEIF3H) cell extract, about 5 mg protein, on Superose 6 Increase 10/300 GL in cold PBS; fractions analysed by western blot
[4] = target: EIF3H, endogenous in HCT116 (human (endogenous in HCT116)) (UniProt O15372); assay: co-IP; endogenous proteins, HCT116 lysate; primary antibody overnight at 4 °C and Protein A/G Sepharose; rabbit IgG as control; immunoblot
[5] = target: EIF3H, endogenous in HCT116 (human (endogenous in HCT116)) (UniProt O15372); assay: proximity ligation; in situ PLA (Duolink) on fixed HCT116 cells with rabbit anti-HAX1 and mouse anti-EIF3H antibodies
Flag-RAF1 in HCT116 = Flag-RAF1 in HCT116 (UniProt P04049); assay: co-IP; HCT116 cells (shCtrl, shHAX1 or shEIF3H, with or without HA-HAX1) transfected with Flag-RAF1 and/or Myc-RAF1; anti-Flag M2 or anti-Myc beads; immunoblot
EIF3H^DDQ/AAA = EIF3H^DDQ/AAA (UniProt O15372); assay: co-IP; wild-type and point-mutant EIF3H with HAX1 (Supplementary Fig. 5b); cells, bait and beads not told
[6] = target: myc-EIF3H (1-352, full length), wild type (UniProt O15372); assay: as above
EIF3H^YW/AA = EIF3H^YW/AA (UniProt O15372); assay: as above
[7] = target: HAX1 (HS1 associated protein X-1), endogenous in HCT116 (human (endogenous in HCT116)) (UniProt O00165); assay: co-IP; endogenous proteins, HCT116 lysate; primary antibody overnight at 4 °C and Protein A/G Sepharose; rabbit IgG as control; immunoblot
Flag-βTrCP in HEK293T = Flag-βTrCP in HEK293T (UniProt Q9Y297); assay: co-IP; HEK293T cells transfected with Flag- or Myc-tagged bait (in some panels with increasing HA-HAX1); NP-40 buffer (50 mM Tris-HCl pH 7.5, 150 mM NaCl, 1 mM EDTA, 0.1% NP-40, 0.1% Triton); anti-Flag M2 beads or anti-Myc magnetic beads, 4 °C, 3-4 h; immunoblot
[8] = target: Flag-EIF3H (1-352, full length) in HEK293T (UniProt O15372); assay: as above
[9] = target: Flag-RAF1-GFP, full length (UniProt P04049); assay: as above

Substance: ERK1, endogenous in HCT116 (from UniProt P27361 1-379)
binding (Flag-RAF1 in HCT116): binds

Substance: HAX1 (co-IP of Supplementary Fig. 5b) (from UniProt O00165 1-279)
binding (EIF3H^DDQ/AAA): binds
binding [6]: binds
binding (EIF3H^YW/AA): binds

Substance: RAF1, endogenous in HCT116 (from UniProt P04049 1-648)
binding [7]: binds

Substance: ERK1, endogenous in HEK293T (from UniProt P27361 1-379)
binding (Flag-RAF1 in HEK293T): binds

Substance: ERK2, endogenous in HCT116 (from UniProt P28482 1-360)
binding (Flag-RAF1 in HCT116): binds

Now from value to substance:

binding (Flag-RAF1 in HEK293T): binds
Substance: ERK2, endogenous in HEK293T (from UniProt P28482 1-360)

binding [1]: binds
binding [2]: no binding
binding (Flag-HAX1 in HEK293T): binds
Substance: βTrCP, endogenous in HEK293T (from UniProt Q9Y297 1-605)

binding [3]: binds
binding [4]: binds
binding [5]: binds
Substance: HAX1 (HS1 associated protein X-1), endogenous in HCT116 (from UniProt O00165 1-279)

binding [7]: binds
Substance: βTrCP, endogenous in HCT116 (from UniProt Q9Y297 1-605)

binding (Flag-HAX1 in HEK293T): binds
Substance: EIF3H, endogenous in HEK293T (from UniProt O15372 1-352)

binding (Flag-βTrCP in HEK293T): binds
binding [8]: binds
binding (Flag-RAF1 in HEK293T): binds
binding [9]: binds
Substance: HAX1, endogenous in HEK293T (from UniProt O00165 1-279)

binding (Flag-HAX1 in HEK293T): binds
Substance: RAF1, endogenous in HEK293T (from UniProt P04049 1-648)
